Measurements published in paper PMC10432539.

B1: Ndrg2 (protein, UniProt Q8VBU2 1-371)
chain: MAELQEVQITEEKPLLPGQTPEAAKEAELAARILLDQGQTHSVETPYGSVTFTVYGTPKPKRPAIFTYHDVGLNYKSCFQPLFQFGDMQEIIQNFVRVHVDAPGMEEGAPVFPLGYQYPSQDQLADMIPCILQYLNFSTIIGVGVGAGAYILSRYALNHPDTVEGLVLINIDPNAKGWMDWAAHKLTGLTSSIPEMILGHLFSQEELSGNSELIQKYRSLITHAPNLENIELYWNSYNNRRDLNFERGGEMTLKCPVMLVVGDQAPHEDAVVECNSKLDPTQTSFLKMADSGGQPQLTQPGKLTEAFKYFVQGMGYMASSCMTRLSRSRTASLTSAASIDGSRSRSRTLSQSSESGTLPSGPPGHTMEVSC
B2: EphA3 (receptor, UniProt O08680 21-984)
chain: ELSPQPSNEVNLLDSKTIQGELGWISYPSHGWEEISGVDEHYTPIRTYQVCNVMDHSQNNWLRTNWVPRNSAQKIYVELKFTLRDCNSIPLVLGTCKETFNLYYMESDDDHGVKFLEHQFTKIDTIAADESFTQMDLGDRILKLNTEIREVGPVNKKGFYLAFQDVGACVALVSVRVYFKKCPFTVKNLAMFPDTVPMDSQSLVEVRGSCVNNSKEEDPPRMYCSTEGEWLVPIGKCTCNAGYEERGFICQACRPGFYKALDGVAKCTKCPPHSSTQEDGSMNCRCENNYFRAEKDPPSMACTRPPSAPRNVISNINETSVILDWSWPLDTGGRKDITFNIICKKCGWNVRQCEPCSPNVRFLPRQLGLTNTTVTVTDLLAHTNYTFEIDAINGVSELSSPPRQFAAVSITTNQAAPSPVMTIKKDRTSRNSISLSWQEPEHPNGIILDYEVKYYEKQEQETSYTILRARGTNVTISSLKPDTTYVFQIRARTAAGYGTNSRKFEFENSPDSFSISGENSHVVMIAISAAVAIIVLTVVTYVLVGRFCGYHKSKHSSDEKRLHFGNGHLRLPGLRTYVDPHTYEDPTQAVHEFAKELDATNIAIDKVVGAGEFGEVCSGRLKLPSKKEISVAIKTLKVGYTEKQRRDFLGEASIMGQFDHPNIIRLEGVVTKSKPVMIVTEYMENGSLDSFLRKHDAQFTVIQLVGMLRGIASGMKYLSDMGYVHRDLAARNILINSNLVCKVSDFGLSRVLEDDPEAAYTTRGGKIPVRWTSPEATAYRKFTSASDVWSYGIVLWEVMSYGERPYWEMSNQDVIKAVDEGYRLPLPMDCPAALYQLMLDCWQKDRNNRPKFEQIVSILDKLIRNPGSLKIITSAAARPSNLLLDQSNVDIATFHTTGDWLNGMRTAHCKEIFTGVEYSSCDTIAKISTDDMKKVGVTVVGPQKKIISSIKALETQSKNGPVPV
B3: Nmt1 (enzyme, UniProt Q8K1Q0 1-496)
chain: MADESETAVKLPAPSLPLMMEGNGNGHEHCSDCENEEDISHNRGGLSPANDTGAKKKKKKQKKKKEKGNDMDSTQDQPVKMNSLPAERIQEIQKAIELFSVGQGPAKTMEEASKRSYQFWDTQPVPKLGEVVNTHGPVEPDKDNIRQEPYTLPQGFTWDALDLGDRGVLKELYTLLNENYVEDDDNMFRFDYSPEFLLWALRPPGWLPQWHCGVRVVSSRKLVGFISAIPANIHIYDTEKKMVEINFLCVHKKLRSKRVAPVLIREITRRVHLEGIFQAVYTAGVVLPKPVGTCRYWHRSLNPRKLIEVKFSHLSRNMTMQRTMKLYRLPETPKTAGLRPMEKKDIPVVHQLLSRYLKQFNLTPVMNQEEVEHWFYPQENIIDTFVVENANGEVTDFLSFYTLPSTIMNHPTHKSLKAAYSFYNVHTQTPLLDLMSDALVLAKMKGFDVFNALDLMENKTFLEKLKFGIGDGNLQYYLYNWKCPSMGAEKVGLVLQ
B4: Ipo13 (protein, UniProt Q9JM04 1-963)
chain: MERREEQLGAAGAGAAPALDFTVENVEKALHQLYYDPNIENKNLAQKWLMQAQVSPQAWHFSWQLLQPDKVPEIQYFGASALHIKISRYWSDIPTDQYESLKAHSFTQITRFASGSKIVLTRLCVALASLALSMMPDAWPCAVADMVRLFQAEDSPVDSQGRCLALLELLTVLPEEFQTSRLPQYRKGLVRASLAVECGAVFPLLEQLLQQPSSPSCVRQKVLKCFSSWVQLEVPLQDCEALIQAAFAALQDSELFDSSVEAIVNAISQPDAQRYVNTLLKLIPLVLGLQEQLRQAVQNGDMETSHGICRIAVALGENHSRALLDQVEHWQSFLALVNMIMFCTGIPGHYPVNETTSSLTLTFWYTLQDDILSFEAEKQAVYQQVYRPVYFQLVDVLLHKAQFPSDEEYGFWSSDEKEQFRIYRVDISDTLMYVYEMLGAELLSNLYDKLGRLLTSSEEPYSWQHTEALLYGFQSIAETIDVNYSDVVPGLIGLIPRISISNVQLADTVMFTIGALSEWLADHPVMINSVLPLVLHALGNPELSVSSVSTLKKICRECKYELPPYAANIVAVSQDVLMKQIHKTSQCMWLMQALGFLLSALQVEENLKNLHSLISTYIQQLEKLAEEIPKPSNKLAIVHILGLLSNLFTTLDVSHHEDDHEGPELRKLPVPQGPNPVVVVLQQVFQLIQKVLSKWLSDAQVVEAVCAIFEKSVKTLLDDFAPMVPQLCEMLGRMYSTVPQASALDLTRQLVHIFAHEPAHFPPIEALFLLVTSVTLSLFQQGPRDHPDIVDSFMQLLAQALKRKPDLFQCERLDVKAVFQCAVLALKFPEAPTVKASCGFFTELLPRCGEIESVGKVVQEDGRMLLIAVLEAIGGQASRSLMDCFADILFALNKHCFSLLSMWIKEALQPPGFPSARLSPEQKDTFSQQILRERVNKRRVKEMVKEFTLLCRGLHGTDYTADY
B5: Blvra (enzyme, UniProt P46844 3-295)
chain: AEPKRKFGVVVVGVGRAGSVRLRDLKDPRSAAFLNLIGFVSRRELGSLDEVRQISLEDALRSQEIDVAYICSESSSHEDYIRQFLQAGKHVLVEYPMTLSFAAAQELWELAAQKGRVLHEEHVELLMEEFEFLRREVLGKELLKGSLRFTASPLEEERFGFPAFSGISRLTWLVSLFGELSLISATLEERKEDQYMKMTVQLETQNKGLLSWIEEKGPGLKRNRYVNFQFTSGSLEEVPSVGVNKNIFLKDQDIFVQKLLDQVSAEDLAAEKKRIMHCLGLASDIQKLCHQKK
B6: EphB6 (receptor, UniProt P0C0K7 32-1013)
chain: LEEVLLDTTGETSEIGWLTYPPGGWDEVSVLDDQRRLTRTFEACHVAGLPPGSGQDNWLQTHFVERRGAQRAHIRLHFSVRACSSLGVSGGTCRETFTLYYRQADEPDSPDSISAWHLKRWTKVDTIAADESFPASSSSSSWAVGPHRTDQRVGLQLNVKERSFGPLTQRGFYVAFQDTGACLALVAVKLFSYTCPSVLRAFASFPETQASGAGGASLVAAVGTCVAHAEPEEDGVGGQAGGSPPRLHCNGEGRWMVAVGGCRCQPGHQPARGDKLCQACPEGSYKALPGNVPCSPCPARSHSPDPAAPVCPCLQGFYRASSDPPEAPCTGPPSAPRELWFEVQGSALMLHWRLPQELGGRGDLLFNVVCKECGGHKEPSSGGMCRRCRDEVHFDPRQRGLTESRVLVGGLRAHVPYILEVQAVNGVSELSPDPPQAAAINVSTSHEVPSAVPVMHQVSRAANSITVSWPQPEQTNGNILDYQLRYYDQAEDESHSFTMTSETNTATVTRLSPGHIYGFQVRARTAAGHGPYGGKVYFQTLPQGELSSQLPEKLSLVIGSILGALAFLLLAAITVLAVIFQRKRRGTGYTEQLQQYSSPGLGVKYYIDPSTYDDPCQAIRELAREVDPTYIKIEEVIGAGSFGEVRRGRLQPRGRREQAVAIQALWAGGAESLKMTFLGRAALLGQFQHPNILRLEGVVTRSRPVMVLTELMELGPLDSFLRQREGQFSSLQLVAMQRGVAAAMQYLSSFAFVHRALSARSVLVNSHLVCKVARLGHSPQGSSSLLRWAAPEVITHGKYTTSSDVWSFGILMWEVMSYGERPYWDMSDQEVLNAIEQEFRLPPPPGCPTGLHLLMLDTWQKDRARRPHFDQLVAAFDKMIRKPDTLQAEGSSGDRPSQALLNPVALDFPCLDSPQAWLSAIGLECYQDNFSKFGLSTFSDVAQLSLEDLPGLGITLAGHQKKLLHNIQLLQQHLRQPGSVEV

Biological target: Heimdall (rat (endogenous in DI TNC1))
Test: affinity purification with mass spectrometry; rabbit anti-Heimdall on Dynabeads Protein A, 1 h at room temperature with 500 ug of DI TNC1 cell extract (cells treated or not with 200 ng/mL LPS); washes in PBS 0.1 M pH 8.0, glycine pH 2.8 elution, shotgun proteomics; control: antibody pre-incubated with the immunising peptides (IP PEP)

binding | Binder
binds | B1
binds | B2
binds | B3
binds | B4
binds | B5
binds | B6

No constants are given. Whether binding was seen depends on the method and setting. In cells and extracts the contact can be indirect. These calls come from enrichment with a bait or labelling near it, and not all partners need be listed.
